PubChem BioAssay AID504764, Drosophila RNAi Screening Center, 2011
The screen tested about 22,000 reagents; shown is a random part of those with a known target gene and a result. Of all reagents, 403 (1.9%) were called active. 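Unnormalised raw counts per well; ratio z-scores behind the hit calls and whether each hit raises or lowers signal are not deposited.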 Not stated in the record: the amount of reagent.

- Purpose: 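Genome-wide screen for regulators of Notch-driven gene expression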 (primary screen)
- Cells: Drosophila Kc167 cells
- Reagents: long dsRNA against Drosophila genes
- Time to read-out: about 5 days (4 days dsRNA, then 24 h after transfection)
- Challenge: transfection of constitutively active membrane-tethered Notch lacking the extracellular domain, read 24 h later
- Detection: 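Light from a Notch-responsive E(spl)m3 luciferase reporter under active Notch, with control-promoter and no-Notch reporter wells to normalise; raw counts from paired wells a and b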
- Scale: induced reporter light, run 1, well a and induced reporter light, run 1, well b: higher = more light from the Notch target reporter with active Notch; control promoter light, run 1, well a and control promoter light, run 1, well b: higher = more light from the viral control promoter (cell number, transfection, viability); uninduced reporter light, run 1, well a: higher = more light from the Notch target reporter without active Notch
- Active means: 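Wells with low control signal or poorly matching duplicates excluded; duplicates averaged; per source plate, z beyond ±2 for induced/control log2 ratio or beyond ±1.8 for induced/uninduced marks a hit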
- Meaning of the calls: active = modifier hit (raised or lowered Notch signal); inactive = not a hit

| target | dsRNA | induced reporter light, run 1, well a | induced reporter light, run 1, well b | control promoter light, run 1, well a | control promoter light, run 1, well b | uninduced reporter light, run 1, well a | activity call |
| --- | --- | --- | --- | --- | --- | --- | --- |
| eIF4G1 | DRSC17218 | 23220 | 31795 | 33805 | 31725 | 1665 | inactive |
| CG14383 | DRSC14841 | 3.33e5 | 3.37e5 | 2.90e5 | 2.97e5 | 24625 | inactive |
| Idh | DRSC10779 | 1.12e5 | 1.29e5 | 94160 | 54535 | 11010 | inactive |
| mms4 | DRSC06249 | 1.35e5 | 1.61e5 | 1.80e5 | 1.94e5 | 13815 | inactive |
| aub | DRSC03486 | 2.63e5 | 3.12e5 | 3.00e5 | 2.92e5 | 18792 | inactive |
| BCL7-like | DRSC17729 | 1.93e5 | 1.75e5 | 2.49e5 | 2.17e5 | 13195 | inactive |
| Dhod | DRSC16647 | 84620 | 80695 | 62525 | 46090 | 7195 | inactive |
| l(3)73Ah | DRSC11359 | 1.83e5 | 1.76e5 | 1.84e5 | 1.50e5 | 9700 | inactive |
| CstF50 | DRSC15434 | 1.03e5 | 1.17e5 | 1.07e5 | 1.18e5 | 5005 | inactive |
| Bx42 | DRSC17743 | 38905 | 36305 | 25945 | 22182 | 2665 | inactive |
| CG31949 | DRSC00110 | 90040 | 81335 | 1.09e5 | 1.26e5 | 7175 | inactive |
| CG5819 | DRSC04520 | 46675 | 46645 | 62900 | 61790 | 2470 | inactive |
| tbc | DRSC20540 | 17280 | 15100 | 15580 | 14265 | 6335 | inactive |
| CG9727 | DRSC12585 | 1.24e5 | 1.27e5 | 89425 | 86935 | 7825 | inactive |
| fig | DRSC16270 | 1.43e5 | 1.27e5 | 1.70e5 | 1.88e5 | 12390 | inactive |
| Usp8 | DRSC15876 | 2.58e5 | 2.04e5 | 2.77e5 | 2.63e5 | 15120 | inactive |
| Tat | DRSC19602 | 99070 | 1.13e5 | 1.24e5 | 79560 | 11770 | inactive |
| CG33160 | DRSC08197 | 89110 | 1.14e5 | 2.04e5 | 1.85e5 | 6055 | inactive |
| bonsai | DRSC04453 | 2.01e5 | 1.85e5 | 1.74e5 | 1.77e5 | 13920 | inactive |
| CG18081 | DRSC10294 | 1.84e5 | 1.55e5 | 2.10e5 | 2.13e5 | 9145 | inactive |
| idc | DRSC15680 | 1.45e5 | 1.69e5 | 1.76e5 | 1.88e5 | 17480 | inactive |
| CG31343 | DRSC15887 | 1.67e5 | 2.39e5 | 2.35e5 | 2.61e5 | 14270 | inactive |
| CG43345 | DRSC03164 | 1.75e5 | 1.70e5 | 1.57e5 | 1.71e5 | 15015 | inactive |
| CG42361 | DRSC04391 | 1.84e5 | 1.61e5 | 1.61e5 | 1.63e5 | 11440 | inactive |
| CG8768 | DRSC07259 | 1.03e5 | 75365 | 76565 | 74430 | 7745 | inactive |
| CG4455 | DRSC01983 | 1.84e5 | 1.89e5 | 1.90e5 | 1.80e5 | 19865 | active |
| CG17475 | DRSC15238 | 2.29e5 | 2.51e5 | 2.84e5 | 2.43e5 | 20265 | inactive |
| CG13731 | DRSC10059 | 1.91e5 | 2.15e5 | 2.63e5 | 2.17e5 | 5780 | inactive |

Reprinted from the listing (7 entries):
| target | dsRNA | induced reporter light, run 1, well a | induced reporter light, run 1, well b | control promoter light, run 1, well a | control promoter light, run 1, well b | uninduced reporter light, run 1, well a | activity call |
| --- | --- | --- | --- | --- | --- | --- | --- |
| Tat | DRSC19602 | 99070 | 1.13e5 | 1.24e5 | 79560 | 11770 | inactive |
| CG33160 | DRSC08197 | 89110 | 1.14e5 | 2.04e5 | 1.85e5 | 6055 | inactive |
| bonsai | DRSC04453 | 2.01e5 | 1.85e5 | 1.74e5 | 1.77e5 | 13920 | inactive |
| CG18081 | DRSC10294 | 1.84e5 | 1.55e5 | 2.10e5 | 2.13e5 | 9145 | inactive |
| idc | DRSC15680 | 1.45e5 | 1.69e5 | 1.76e5 | 1.88e5 | 17480 | inactive |
| CG31343 | DRSC15887 | 1.67e5 | 2.39e5 | 2.35e5 | 2.61e5 | 14270 | inactive |
| CG43345 | DRSC03164 | 1.75e5 | 1.70e5 | 1.57e5 | 1.71e5 | 15015 | inactive |

Additional results follow:
| target | dsRNA | induced reporter light, run 1, well a | induced reporter light, run 1, well b | control promoter light, run 1, well a | control promoter light, run 1, well b | uninduced reporter light, run 1, well a | activity call |
| --- | --- | --- | --- | --- | --- | --- | --- |
| Cp19 | DRSC11121 | 1.55e5 | 1.39e5 | 1.47e5 | 1.74e5 | 10105 | inactive |
| CG5290 | DRSC10501 | 1.46e5 | 1.49e5 | 92560 | 1.53e5 | 9378 | inactive |
| CG4949 | DRSC19926 | 2.40e5 | 1.57e5 | 1.56e5 | 1.36e5 | 13605 | inactive |
| Gr22b | DRSC20911 | 2.37e5 | 1.71e5 | 2.95e5 | 2.96e5 | 18555 | inactive |
| tun | DRSC05592 | 1.37e5 | 2.77e5 | 2.92e5 | 2.74e5 | 17665 | inactive |
| tun | DRSC07127 | 1.10e5 | 92885 | 1.84e5 | 1.99e5 | 9425 | inactive |
| Dyrk2 | DRSC03610 | 2.15e5 | 2.45e5 | 2.11e5 | 1.75e5 | 21560 | inactive |
| CG10650 | DRSC02085 | 1.87e5 | 2.19e5 | 1.83e5 | 1.92e5 | 18015 | inactive |
| CG42686 (retired record) | DRSC15247 | 9565 | 8355 | 6785 | 6530 | 2500 | inactive |
| CG42686 (retired record) | DRSC15248 | 1.62e5 | 1.57e5 | 2.24e5 | 1.93e5 | 14205 | inactive |
| BomBc3 | DRSC15873 | 2.09e5 | 1.95e5 | 2.07e5 | 1.96e5 | 14335 | inactive |
| Bsg | DRSC01010 | 38535 | 43690 | 19590 | 16810 | 6625 | inactive |
| Bsg | DRSC01011 | 92255 | 70125 | 1.33e5 | 1.02e5 | 6625 | inactive |
| CG5756 | DRSC06950 | 85990 | 93820 | 1.16e5 | 82090 | 6350 | inactive |
| sol | DRSC20587 | 90310 | 75520 | 92565 | 1.24e5 | 8615 | inactive |
| Ankrd49 | DRSC01894 | 1.06e5 | 1.15e5 | 1.12e5 | 1.45e5 | 10375 | inactive |
| Rsbp15 | DRSC14176 | 79380 | 74225 | 1.07e5 | 61805 | 2592 | inactive |
| Fum2 | DRSC18345 | 1.10e5 | 1.08e5 | 1.47e5 | 1.88e5 | 6990 | inactive |
| CG4194 | DRSC18520 | 1.43e5 | 1.54e5 | 2.24e5 | 2.34e5 | 10310 | inactive |
| kel | DRSC03554 | 1.18e5 | 1.07e5 | 1.16e5 | 1.47e5 | 10730 | inactive |
| S-Lap1 | DRSC10627 | 99155 | 98280 | 67930 | 28865 | 9210 | inactive |
| CG31142 | DRSC13647 | 1.90e5 | 1.67e5 | 1.77e5 | 2.02e5 | 17580 | inactive |
